Measurements from patent US20180155757A1, “IDENTIFICATION OF BACTERIA THAT ARE RESISTANT TO CARBAPENEMS BY MEMBRANE IMPERVIOUSNESS” (BIOMÉRIEUX, priority 2015, published 2018).

Key:
[1] = system: Model strains: membrane impermeability; assay: Diffusion of indicator carbapenem and PMBN from one and the same Etest strip; assay type: cell-based
[2] = system: Model strains: carbapenemase production; assay: as above; assay type: cell-based
[3] = impregnating solution [PMBN] 100 μg/ml
[4] = impregnating solution [PMBN] 200 μg/ml
[5] = impregnating solution [PMBN] 300 μg/ml

C[C@@H](O)[C@H]1C(=O)N2C(C(=O)O)=C(S[C@@H]3CN[C@H](C(=O)Nc4cccc(C(=O)O)c4)C3)[C@H](C)[C@H]12 [ETP, ertapenem]
Number of positive strains/number of strains tested [1, 3]: 10/16 | Number of positive strains/number of strains tested [1, 4]: 10/16 | Number of positive strains/number of strains tested [1, 5]: 13/16 | Number of positive strains/number of strains tested [2, 3]: 0/6 | Number of positive strains/number of strains tested [2, 4]: 1/6 | Number of positive strains/number of strains tested [2, 5]: 1/6

C[C@@H](O)[C@H]1C(=O)N2C(C(=O)O)=C(S[C@@H]3CN[C@H](C(=O)N(C)C)C3)[C@H](C)[C@H]12 [MP, meropenem]
Number of positive strains/number of strains tested [1, 3]: 11/15 | Number of positive strains/number of strains tested [1, 4]: 13/15 | Number of positive strains/number of strains tested [1, 5]: 14/15 | Number of positive strains/number of strains tested [2, 3]: 0/3 | Number of positive strains/number of strains tested [2, 4]: 0/3 | Number of positive strains/number of strains tested [2, 5]: 0/3
